24 compounds from PubChem BioAssay AID330 (DTP/NCI, 2004) can be followed below.

Molecules are shown by their SMILES. The list shows only some results of the screen, not a fair sample: it gathers tests that were run many times, whatever their T/C, doses with no T/C, and many T/C values between a quarter and a half above the control. Further doses and runs are listed elsewhere. T/C is the treated group as % of the vehicle group. Some entries give survivors of the animals treated and no T/C: the source files T/C as zero there, which appears to mark a toxic dose or a test without result, not a measured value. Some survivor counts are full or nearly so, which does not show that the dose was tolerated: survival well below the control is almost never listed, so the zero probably covers shortened survival too. Survivors were counted at the toxicity check, usually on the fifth day, unless a day is given; later deaths do not show. Schedule codes are those of the source, read here as Q, the interval in days (D) or hours (H), X, the number of doses. Additions like (4×) say how often a value occurs here. For survival time, the PubChem record calls one and a half times the control and up active, and a quarter to a half above the control has no call in these data; cut-offs in other NCI protocols can differ. Some entries were tested several times; the results are listed from low to high. Some T/C values carry the count of animals alive at the toxicity check (mostly the fifth day); without a count, all were alive then.

The subject of the assay is P388 leukemia ip, CD2F1 mice, survival T/C. Nature of the assay: NCI In Vivo Anticancer Drug Screen. Data for tumor model P388 Leukemia (intraperitoneal) in CD2F1 (CDF1) mice. The following applies: T/C endpoint: median survival time, higher T/C = longer survival.
Where [1] appears, read: dose: 12.5 mg/kg/injection, schedule: Q01DX009 (ip), vehicle: saline.
Setting [2] is: dose: 25.0 mg/kg/injection, schedule: Q01DX009 (ip), vehicle: saline.
Setting [3] is: dose: 50.0 mg/kg/injection, schedule: Q01DX009 (ip), vehicle: saline.
The mark [4] stands for this setting: dose: 100.0 mg/kg/injection, schedule: Q01DX009 (ip), vehicle: saline with Tween-80.
[5] abbreviates: dose: 200.0 mg/kg/injection, schedule: Q01DX009 (ip), vehicle: saline with Tween-80.
Where [6] appears, read: dose: 50.0 mg/kg/injection, schedule: Q01DX005 (ip), vehicle: saline with Tween-80.
The mark [7] stands for this setting: dose: 100.0 mg/kg/injection, schedule: Q01DX005 (ip), vehicle: saline with Tween-80.
Where [8] appears, read: dose: 200.0 mg/kg/injection, schedule: Q01DX005 (ip), vehicle: saline with Tween-80.
Where [9] appears, read: dose: 200.0 mg/kg/injection, schedule: Q01DX009 (ip), vehicle: saline.
The mark [10] stands for this setting: dose: 120.0 mg/kg/injection, schedule: Q01DX005 (ip), vehicle: saline with Tween-80.
[11] abbreviates: dose: 240.0 mg/kg/injection, schedule: Q01DX005 (ip), vehicle: saline with Tween-80.
Where [12] appears, read: dose: 25.0 mg/kg/injection, schedule: Q01DX009 (ip), vehicle: saline with Tween-80.
Where [13] appears, read: dose: 50.0 mg/kg/injection, schedule: Q01DX009 (ip), vehicle: saline with Tween-80.
[14] abbreviates: dose: 400.0 mg/kg/injection, schedule: Q04DX003 (ip), vehicle: Klucel (hydroxypropylcellulose) (HPC).
Where [15] appears, read: dose: 50.0 mg/kg/injection, schedule: Q01DX005 (ip), vehicle: Klucel (hydroxypropylcellulose) (HPC).

For the compound `O=C(Nc1ccc(Cl)c(Cl)c1)n1cnc2ccccc21`, the survivor count (dose: 6.25 mg/kg/injection, schedule: Q01DX009 (ip), vehicle: saline) is reported as 5 of 6; the survivor count under setting [1] is listed as 6 of 6; the survivor count under setting [2] was 5 of 6; the survivor count under setting [3] is 6 of 6; the survivor count under setting [4] is listed as 6 of 6; the survivor count under setting [5] is 5 of 6. Also, the T/C runs as follows: under setting [1], 97 and 106 % of control (2×); under setting [2], 93, 107, 116 % of control; under setting [3], 112, 115, 123 % of control.
`CN(C)CCC(=O)C(=C/C=C/c1ccccc1)C(=O)CCN(C)C`: the T/C is, setting by setting: under setting [6], 132 % of control; under setting [7], 132 % of control. Also, the survivor count under setting [8] is reported as 0 of 5.
As for `Nc1c(CC(=O)O)cccc1C(=O)c1ccccc1`, the survivor count under setting [9] is 4 of 6.
`O=C1OC(c2ccccc2)(c2ccccc2)CC1C=C(c1ccccc1)c1ccccc1` (centres undefined): the survivor count reads like this: under setting [7], 6 of 6; under setting [8], 6 of 6.
Regarding `CSCNC(=S)Nc1ccc(Cl)c(Cl)c1`, under setting [5], the survivor count was 6 of 6.
Regarding `CN1C(=O)n2c(nc3ccccc32)C(N=[N+]=[N-])(N=[N+]=[N-])C1=O` (centres undefined), the survivor count by setting is: under setting [10], 2 of 6; under setting [11], 0 of 6.
For `CCNC(=S)N/N=C/c1nccc(-c2ccccc2)c1C`, the survivor count (dose: 100.0 mg/kg/injection, schedule: Q01DX009 (ip), vehicle: saline) is recorded as 5 of 6. For the same compound, the T/C under setting [9] was 125 % of control (2×).
Regarding `CCN(CC)C(=S)N/N=C(\C)c1ccccn1`, the survivor count was 6 of 6 under setting [12], 4 of 6 under setting [13], 3 of 6 under setting [4] and 0 of 6 under setting [5].
For `CC1OC2=C(C(=O)c3ccccc3C2=O)C(O)C1O` (centres undefined), the survivor count by setting is: (dose: 12.5 mg/kg/injection, schedule: Q01DX001 (ip), vehicle: Klucel (hydroxypropylcellulose) (HPC)) 6 of 6; (dose: 25.0 mg/kg/injection, schedule: Q01DX001 (ip), vehicle: Klucel (hydroxypropylcellulose) (HPC)) 6 of 6; (dose: 50.0 mg/kg/injection, schedule: Q01DX001 (ip), vehicle: Klucel (hydroxypropylcellulose) (HPC)) 6 of 6; (dose: 100.0 mg/kg/injection, schedule: Q01DX001 (ip), vehicle: Klucel (hydroxypropylcellulose) (HPC)) 0 of 6 (2×); (dose: 200.0 mg/kg/injection, schedule: Q01DX001 (ip), vehicle: Klucel (hydroxypropylcellulose) (HPC)) 0 of 6; (dose: 400.0 mg/kg/injection, schedule: Q01DX001 (ip), vehicle: Klucel (hydroxypropylcellulose) (HPC)) 0 of 6.
With `CC(=O)OCC1OC(n2cnc3c(=S)nc(N)[nH]c32)CC1OC(C)=O` (centres undefined), the T/C was 135 % of control (dose: 8.8 mg/kg/injection, schedule: Q04DX003 (ip), vehicle: saline with Tween-80); 126 and 144 % of control (dose: 10.0 mg/kg/injection, schedule: Q04DX003 (ip), vehicle: saline with Tween-80); 138 % of control (dose: 13.2 mg/kg/injection, schedule: Q04DX003 (ip), vehicle: saline with Tween-80); 126 % of control (dose: 40.0 mg/kg/injection, schedule: Q04DX003 (ip), vehicle: saline with Tween-80); 138 % of control (dose: 45.0 mg/kg/injection, schedule: Q04DX003 (ip), vehicle: saline with Tween-80).
As to `O=C(O)c1ccccc1NC(c1ccccc1)c1ccc2cccnc2c1O` (centres undefined), under setting [14], the T/C was 139 % of control [5 of 6 alive] and the survivor count is listed as 2 of 6.
Take `C=C(Cl)C(=NC(C)C)Nc1ccccc1C`: the T/C (dose: 6.25 mg/kg/injection, schedule: Q01DX005 (ip), vehicle: Klucel (hydroxypropylcellulose) (HPC)) is 131 % of control. Further, the survivor count under setting [15] was 0 of 6; the survivor count (dose: 100.0 mg/kg/injection, schedule: Q01DX005 (ip), vehicle: Klucel (hydroxypropylcellulose) (HPC)) was 0 of 6; the survivor count (dose: 200.0 mg/kg/injection, schedule: Q01DX005 (ip), vehicle: Klucel (hydroxypropylcellulose) (HPC)) is 0 of 6.
In the case of `CN1C2CCC1CC(OC(=O)/C=C/C(=O)OC1CC3CCC(C1)N3C)C2` (centres undefined), the survivor count (dose: 240.0 mg/kg/injection, schedule: Q01DX005 (ip), vehicle: suspension in saline) is reported as 5 of 6.
`C#CC(=O)C1OC2OC(C)(C)OC2C2OC(C)(C)OC12` (centres undefined): the survivor count is 0 of 6 under setting [6], 0 of 6 under setting [7] and 0 of 6 under setting [8].
Regarding `CSc1nc(-c2ccccc2)c(C(=O)NC(C)CN2CCCCC2)s1` (centres undefined), under setting [11], the survivor count is listed as 1 of 6.
Turning to `OCN(CO)c1nc(N(CO)CO)nc(N(CO)CO)n1`, the survivor count is 6 of 10 under setting [12] and 1 of 10 under setting [4].
As to `O=C1N/C(=N\c2nc3ccccc3s2)c2ccccc21`, the survivor count by setting is: (dose: 12.5 mg/kg/injection, schedule: Q01DX009 (ip), vehicle: saline with Tween-80) 6 of 6; under setting [13], 6 of 6.
`Cn1c(=O)c2c(ncn2Cc2ccc(O)c([N+](=O)[O-])c2)n(C)c1=O`: the survivor count under setting [15] was 6 of 6.
For `Cc1ccc(/C=C2/C(=O)N(c3ccccc3)N=C2c2ccccc2)cc1`, the survivor count is, setting by setting: (dose: 7.5 mg/kg/injection, schedule: Q01DX005 (ip), vehicle: saline) 5 of 6; (dose: 60.0 mg/kg/injection, schedule: Q01DX005 (ip), vehicle: saline with Tween-80) 0 of 6; under setting [10], 2 of 6; under setting [11], 0 of 6.
`C1=CCC(C(Nc2nncs2)Nc2nncs2)CC1` (centres undefined): under setting [10], the T/C is 125 % of control.
For the compound `COC1C(C)OC(OC2CC(C)(O)Cc3cc4c(c(O)c32)C(=O)c2c(O)cc3c(c2C4=O)OC2OC3(C)C(OC(C)=O)C(N(C)C)C2OC(C)=O)C(OC)C1(C)OC` (centres undefined), the T/C runs as follows: (dose: 3.12 mg/kg/injection, schedule: Q04DX003 (ip), vehicle: other) 125 % of control; (dose: 6.25 mg/kg/injection, schedule: Q04DX003 (ip), vehicle: other) 128 % of control; (dose: 12.5 mg/kg/injection, schedule: Q04DX003 (ip), vehicle: other) 128 % of control; (dose: 25.0 mg/kg/injection, schedule: Q04DX003 (ip), vehicle: other) 132 % of control; (dose: 50.0 mg/kg/injection, schedule: Q04DX003 (ip), vehicle: other) 141 % of control [5 of 6 alive].
Take `ClCc1ccc(Oc2ccc(CCl)cc2)cc1`: the T/C (dose: 25.0 mg/kg/injection, schedule: Q01DX009 (ip), vehicle: Klucel (hydroxypropylcellulose) (HPC)) is 127 % of control and the T/C (dose: 50.0 mg/kg/injection, schedule: Q01DX009 (ip), vehicle: Klucel (hydroxypropylcellulose) (HPC)) was 131 % of control (2×). Also, the survivor count is given as 6 of 6 (dose: 100.0 mg/kg/injection, schedule: Q01DX009 (ip), vehicle: Klucel (hydroxypropylcellulose) (HPC)) and 2 of 6 (dose: 200.0 mg/kg/injection, schedule: Q01DX009 (ip), vehicle: Klucel (hydroxypropylcellulose) (HPC)).
Take `Cc1cnc(C#N)c(Cl)n1`: the survivor count (dose: 400.0 mg/kg/injection, schedule: Q01DX009 (ip), vehicle: saline with Tween-80) was 6 of 6.
Regarding `N[C@H](C(=O)O)[C@H]1ON=C(Cl)[C@@H]1O`, the T/C is 137 % of control (dose: 0.5 mg/kg/injection, schedule: Q01DX009 (ip), vehicle: saline); 144 % of control (dose: 1.0 mg/kg/injection, schedule: Q01DX009 (ip), vehicle: saline); 135 and 137 % of control (dose: 2.0 mg/kg/injection, schedule: Q01DX009 (ip), vehicle: saline).
